No constants are given. Whether binding was seen depends on the method and setting. Binding seen in cells or lysates may run through a third protein. Here binding means that the protein was enriched with, or labelled near, the bait; the list need not be complete.

Chains of the proteins cited; added tags and fusions are not shown.
UniProt Q02248: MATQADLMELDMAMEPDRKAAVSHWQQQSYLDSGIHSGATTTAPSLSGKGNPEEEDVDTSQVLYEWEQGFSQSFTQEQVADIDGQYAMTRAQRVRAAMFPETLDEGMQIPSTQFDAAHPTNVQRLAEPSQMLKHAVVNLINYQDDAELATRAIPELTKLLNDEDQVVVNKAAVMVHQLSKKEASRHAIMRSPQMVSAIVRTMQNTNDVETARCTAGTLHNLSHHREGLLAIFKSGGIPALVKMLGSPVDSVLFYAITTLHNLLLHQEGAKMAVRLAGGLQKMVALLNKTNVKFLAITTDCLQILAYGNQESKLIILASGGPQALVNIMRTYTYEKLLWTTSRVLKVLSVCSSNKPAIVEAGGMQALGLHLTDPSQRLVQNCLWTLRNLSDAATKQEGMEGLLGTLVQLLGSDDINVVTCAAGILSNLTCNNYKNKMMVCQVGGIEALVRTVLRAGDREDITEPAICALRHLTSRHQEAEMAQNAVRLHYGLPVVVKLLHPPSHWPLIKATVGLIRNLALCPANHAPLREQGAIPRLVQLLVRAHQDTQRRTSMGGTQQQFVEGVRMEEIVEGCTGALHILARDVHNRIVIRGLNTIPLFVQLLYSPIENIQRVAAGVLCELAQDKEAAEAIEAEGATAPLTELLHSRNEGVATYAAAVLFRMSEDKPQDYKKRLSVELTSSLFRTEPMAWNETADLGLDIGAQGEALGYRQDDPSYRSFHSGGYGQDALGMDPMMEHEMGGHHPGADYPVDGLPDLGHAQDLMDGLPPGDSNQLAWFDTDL

The target of the assay is T1, ADNP (Activity Dependent Neuroprotective Protein), endogenous (mouse (endogenous in mouse R1 ESCs)) (UniProt Q9Z103).
T1 sequence: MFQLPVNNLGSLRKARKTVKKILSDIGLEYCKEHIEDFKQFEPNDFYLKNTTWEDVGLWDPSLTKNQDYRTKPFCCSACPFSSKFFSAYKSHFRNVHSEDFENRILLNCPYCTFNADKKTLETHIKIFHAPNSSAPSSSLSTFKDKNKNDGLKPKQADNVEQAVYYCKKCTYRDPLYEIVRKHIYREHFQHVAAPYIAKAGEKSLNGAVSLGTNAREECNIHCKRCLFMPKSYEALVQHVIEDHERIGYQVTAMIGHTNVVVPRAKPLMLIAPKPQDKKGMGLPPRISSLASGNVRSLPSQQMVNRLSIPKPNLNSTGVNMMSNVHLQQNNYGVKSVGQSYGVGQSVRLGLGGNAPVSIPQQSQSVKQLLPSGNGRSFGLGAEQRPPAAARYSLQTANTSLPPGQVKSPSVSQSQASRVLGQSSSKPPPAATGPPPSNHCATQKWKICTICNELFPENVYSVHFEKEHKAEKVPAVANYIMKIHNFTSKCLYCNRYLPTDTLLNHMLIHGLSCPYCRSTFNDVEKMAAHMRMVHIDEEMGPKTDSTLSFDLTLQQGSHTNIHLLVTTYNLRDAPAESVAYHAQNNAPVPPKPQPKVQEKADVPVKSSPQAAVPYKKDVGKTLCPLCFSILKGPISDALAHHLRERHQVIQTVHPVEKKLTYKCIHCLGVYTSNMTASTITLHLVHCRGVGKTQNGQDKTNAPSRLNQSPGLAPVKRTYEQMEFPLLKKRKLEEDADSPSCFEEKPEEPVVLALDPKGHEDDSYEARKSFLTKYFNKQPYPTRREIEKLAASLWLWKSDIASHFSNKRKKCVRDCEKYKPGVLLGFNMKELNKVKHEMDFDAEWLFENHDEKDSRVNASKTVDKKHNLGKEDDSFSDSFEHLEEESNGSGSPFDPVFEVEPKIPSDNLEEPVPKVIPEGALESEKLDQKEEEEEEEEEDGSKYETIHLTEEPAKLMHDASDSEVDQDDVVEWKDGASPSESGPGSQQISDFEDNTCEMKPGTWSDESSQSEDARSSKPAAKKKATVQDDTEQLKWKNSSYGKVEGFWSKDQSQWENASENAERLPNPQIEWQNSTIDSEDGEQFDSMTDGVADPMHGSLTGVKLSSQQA
Description: affinity purification with mass spectrometry; IP with ADNP antibody or IgG, whole lanes of an SDS-PAGE gel analysed by mass spectrometry; cells not given.

With “β-catenin, endogenous (from UniProt Q02248 1-781)”, the binding result was “binds”.

Source of the values: article PMC7293280.
